# From patent US20240342156A1, “METHODS FOR TREATING PAIN” (Xenon Pharmaceuticals Inc., priority 2019, published 2024)
# Tested on: rat spinal nerve ligation (SNL)/Chung model of neuropathic pain
# Assay: Spinal nerve ligation (SNL)/Chung model, thermal allodynia, cold plate test on lesioned paw
# Assay type: in vivo
# Description: Objective: The efficacy of Compound A was assessed using the rat spinal nerve ligation (SNL)/Chung model of neuropathic pain. The SNL model in rats was developed as described previously (Chung J M, Kim H K, Chung K. “Segmental spinal nerve ligation model of neuropathic pain.” Methods Mol. Med. 99 (2004) 35-45).
# Study Design. Briefly, on Day 0, von Frey and cold plate tests were used for baseline measurements of tactile and cold allodynia respectively. Post-baseline measurements, rats (171-209 g male Sprague Dawley) were anesthetized and an incision at the L4-S2 level was performed to expose the left L5 nerve. […] The wound was then sutured and the rats were allowed to recover. On Day 13, post-surgery baselines for tactile and cold allodynia were measured to verify neuropathic pain. Animals were assigned to treatment groups based on the post-surgery baseline score.
# Dosing: For efficacy testing, Compound A was dosed orally once a day for 5 consecutive days from Day 14-18.
# The cold plate apparatus was maintained at 4±1° C. and was surrounded by an acrylic glass enclosure. Rats were placed on the plate for a period of 5 minutes. The latency to 1st paw-withdrawal, total number of paw withdrawals, and total duration of withdrawal responses were recorded for the surgery hind paw.
# [1] = Day 14, test 1 h after administration, 128 mg/kg p.o.
# [2] = Day 18, test 1 h after administration, 128 mg/kg p.o. once on Day 14 and on Day 18
smiles,measurement,setting,value
"CN1CC[C@]23c4c5ccc(O)c4O[C@H]2[C@@H](O)C=C[C@H]3[C@H]1C5.Cl [Morphine, Morphine hydrochloride, reference compound]","Total duration of withdrawal responses (s), Mean ± s.e.m.",[1],4.9 ± 2.4 s
same,"Total duration of withdrawal responses, compared with Vehicle (p.o.), Δ%",[1],+123%
same,"Total duration of withdrawal responses (s), Mean ± s.e.m.",[2],3.8 ± 2.7 s
same,"Total duration of withdrawal responses, compared with Vehicle (p.o.), Δ%",[2],−65%
